Data reported in PubChem BioAssay AID344 (DTP/NCI, 2004).
The list shows only some results of the screen, not a fair sample: its compounds were picked by chemical class. Other doses and runs of a compound may be missing. T/C gives the treated animals as a percentage of the vehicle group. Where survival is the endpoint, this PubChem deposit counts one and a half times the control or more as active, and values a quarter to a half above the control carry no call in these data; other NCI protocols may use other cut-offs. Some entries show no survivor count and are marked so; the dose need not have been tolerated. Schedule codes are those of the source, taken here to give the interval after Q, in days (D) or hours (H), and the number of doses after X.

Test system: mice, LPC-1 plasma cell tumor ip, median survival T/C
Assay: NCI In Vivo Anticancer Drug Screen. Data for tumor model Lieberman Plasma Cell No. 1 (LPC-1) (intraperitoneal) in unknown mice
Conditions: T/C endpoint: median survival time, higher T/C = longer survival
Method: The antitumor activity of compounds was measured in mice bearing transplantable tumors. Survival or tumor size were measured and the results are expressed as the measurement made in the treated group (T) divided by the measurement made in the vehicle treated control group (C). The tumor model used in this assay is Lieberman Plasma Cell No. 1 (LPC-1) (intraperitoneal) in unknown mice

NC1CCCCC1.NP(=O)(O)N(CCCl)CCCl
T/C (dose: 6.0 mg/kg/injection, schedule: Q01DX028 (sc), vehicle: saline): 105 % of control [survivor count not shown] | T/C (dose: 11.0 mg/kg/injection, schedule: Q01DX028 (sc), vehicle: saline): 137 % of control [survivor count not shown] | T/C (dose: 22.0 mg/kg/injection, schedule: Q01DX028 (sc), vehicle: saline): 148 % of control [survivor count not shown] | T/C (dose: 44.0 mg/kg/injection, schedule: Q01DX028 (sc), vehicle: saline): 102 % of control [survivor count not shown]

COc1ccc(N(CCCl)CCCl)cc1
T/C (dose: 7.5 mg/kg/injection, schedule: Q01DX001 (sc), vehicle: carboxymethylcellulose (CMC)): 130 % of control [survivor count not shown] | T/C (dose: 15.0 mg/kg/injection, schedule: Q01DX001 (sc), vehicle: carboxymethylcellulose (CMC)): 108 % of control [survivor count not shown] | T/C (dose: 30.0 mg/kg/injection, schedule: Q01DX001 (sc), vehicle: carboxymethylcellulose (CMC)): 116 % of control [survivor count not shown] | T/C (dose: 40.0 mg/kg/injection, schedule: Q01DX001 (oral), vehicle: carboxymethylcellulose (CMC)): 117 % of control [survivor count not shown] | T/C (dose: 40.0 mg/kg/injection, schedule: Q04DX008 (oral), vehicle: carboxymethylcellulose (CMC)): 111 % of control [survivor count not shown] | T/C (dose: 40.0 mg/kg/injection, schedule: Q08DX004 (oral), vehicle: carboxymethylcellulose (CMC)): 108 % of control [survivor count not shown] | T/C (dose: 60.0 mg/kg/injection, schedule: Q01DX001 (sc), vehicle: carboxymethylcellulose (CMC)): 122 % of control [survivor count not shown] | T/C (dose: 80.0 mg/kg/injection, schedule: Q01DX001 (oral), vehicle: carboxymethylcellulose (CMC)): 141 % of control [survivor count not shown] | T/C (dose: 80.0 mg/kg/injection, schedule: Q04DX008 (oral), vehicle: carboxymethylcellulose (CMC)): 191 % of control [survivor count not shown] | T/C (dose: 80.0 mg/kg/injection, schedule: Q08DX004 (oral), vehicle: carboxymethylcellulose (CMC)): 179 % of control [survivor count not shown] | T/C (dose: 120.0 mg/kg/injection, schedule: Q01DX001 (sc), vehicle: carboxymethylcellulose (CMC)): 125 % of control [survivor count not shown] | T/C (dose: 160.0 mg/kg/injection, schedule: Q01DX001 (oral), vehicle: carboxymethylcellulose (CMC)): 214 % of control [survivor count not shown] | T/C (dose: 160.0 mg/kg/injection, schedule: Q04DX008 (oral), vehicle: carboxymethylcellulose (CMC)): 132 % of control [survivor count not shown] | T/C (dose: 160.0 mg/kg/injection, schedule: Q08DX004 (oral), vehicle: carboxymethylcellulose (CMC)): 288 % of control [survivor count not shown] | T/C (dose: 320.0 mg/kg/injection, schedule: Q01DX001 (oral), vehicle: carboxymethylcellulose (CMC)): 152 % of control [survivor count not shown] | T/C (dose: 320.0 mg/kg/injection, schedule: Q04DX008 (oral), vehicle: carboxymethylcellulose (CMC)): 108 % of control [survivor count not shown] | T/C (dose: 320.0 mg/kg/injection, schedule: Q08DX004 (oral), vehicle: carboxymethylcellulose (CMC)): 129 % of control [survivor count not shown]

NC(Cc1cccc(N(CCCl)CCCl)c1)C(=O)O (centres undefined)
T/C (dose: 1.8 mg/kg/injection, schedule: Q01DX028 (sc), vehicle: saline): 121 % of control [survivor count not shown] | T/C (dose: 5.0 mg/kg/injection, schedule: Q01DX028 (sc), vehicle: saline): 94 % of control [survivor count not shown] | T/C (dose: 14.0 mg/kg/injection, schedule: Q01DX028 (sc), vehicle: saline): 94 % of control [survivor count not shown]
